# Test results as given in the supplement of paper PMC8256030.
# “And” between values parts separate entries of the source, which are not always exact repeats. Equal values may be shown once. The list shows a part of the results. Repeats in this data set agree poorly, so a single value says little.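 HEK293T cells were given each compound shortly before transfection with a reporter in which red mCherry is followed by the SARS-CoV-2 frameshift element and then GFP in the −1 frame, so GFP appears only after frameshifting.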
# Legend:
# [1] = test system: SARS-CoV-2 -1 PRF reporter mCherry-FSE-GFP(-1); assay: mCherry (red) intensity as percent of control; higher = higher upstream reporter expression; conditions: 10 µM; 24 h; HEK293T
# [2] = test system: SARS-CoV-2 -1 PRF reporter mCherry-FSE-GFP(-1); assay: percent effect, decrease of GFP/mCherry ratio (-1 PRF reporter) relative to controls; higher = stronger frameshift inhibition; conditions: 10 µM; 24 h; HEK293T
Compound,mCherry [1],percent effect [2]
C[C@@H]1CC[C@@]2(OC1)O[C@H]1C[C@H]3[C@@H]4CC[C@H]5C[C@@H](O[C@@H]6O[C@H](CO)[C@@H](O[C@@H]7O[C@H](CO)[C@@H](O)[C@H](O)[C@H]7O)[C@H](O)[C@H]6O)CC[C@]5(C)[C@H]4CC[C@]3(C)[C@H]1[C@@H]2C [tiqueside],99.9%,-4.53%
Cc1scc2c1N(C(=O)CN1CCN(C)CC1)c1ccccc1NC2=O,119%,4.14%
CC(=O)Nc1cccc(O)c1 [metacetamol],70.4%,-3.7%
CN1CCC[C@@H]1Cc1c[nH]c2ccc(CCS(=O)(=O)c3ccccc3)cc12,87.3%,-5.88%
Cc1cnc(NC(=O)C2=C(O)c3ccccc3S(=O)(=O)N2C)s1 [Meloxicam],104%,-1.88%
O=P(O)(O)C(O)(Cc1cnc2ccccn12)P(=O)(O)O [minodronic acid],98.8%,-2.55%
O=C(C[C@H](CSc1ccccc1)C(=O)O)c1ccc(-c2ccc(Cl)cc2)cc1 [tanomastat],79%,1.66%
COc1cc(C2Oc3cc([C@H]4Oc5cc(O)cc(O)c5C(=O)[C@@H]4O)ccc3OC2CO)ccc1O (stereo partly drawn) [silibinin],102%,-2.45%
CCN[C@@H]1C[C@H](N)[C@@H](O[C@H]2OC(CN)=CC[C@H]2N)[C@H](O)[C@H]1O[C@H]1OC[C@](C)(O)[C@H](NC)[C@H]1O,103%,-0.72%
O=C(O)c1cc(=O)c2c(OCC(O)COc3cccc4oc(C(=O)O)cc(=O)c34)cccc2o1 [Disodium Cromoglycate],98.3%,0.271%
CC(C)(N)C(=O)N[C@@H](Cc1c[nH]cn1)C(=O)N[C@H](Cc1ccc2ccccc2c1)C(=O)N[C@H](Cc1ccccc1)C(=O)N[C@@H](CCCCN)C(N)=O [ipamorelin],93.4%,-11.6%
C[C@H]1COc2c(C3(N)CC3)c(F)cc3c(=O)c(C(=O)O)cn1c23,144%,-1.41%
OCc1ccccn1,119%,-0.744%
CO[C@H]1/C=C/O[C@@]2(C)Oc3c(C)c(O)c4c(O)c(c5c(nc6cc(C)ccn65)c4c3C2=O)NC(=O)/C(C)=C\C=C\[C@H](C)[C@H](O)[C@@H](C)[C@@H](O)[C@@H](C)[C@H](OC(C)=O)[C@@H]1C [Xifaxan],112%,-3.75%
CC(C)CCCC(C)NCCC(C)C (stereo not drawn) [octamylamine],88.1%,-1.32%
O=C(O)CCNC(=O)c1ccccc1 [betamipron],115%,0.142%
CCn1cc(C(=O)O)c(=O)c2cc(F)c(N3CCNC(C)C3)c(F)c21 (stereo not drawn) [lomefloxacin],107% and 105%,-2.79% and 2.02%
CO[C@H](C(=O)[C@@H](O)[C@@H](C)O)[C@@H]1Cc2cc3cc(O[C@H]4C[C@@H](O[C@H]5C[C@@H](O)[C@H](O)[C@@H](C)O5)[C@H](O)[C@@H](C)O4)c(C)c(O)c3c(O)c2C(=O)[C@H]1O[C@H]1C[C@@H](O[C@H]2C[C@@H](O[C@H]3C[C@](C)(O)[C@H](O)[C@@H](C)O3)[C@@H](O)[C@@H](C)O2)[C@H](O)[C@@H](C)O1 [Plicamycin],555%,-13.2%
CCCCC[C@H](O)/C=C/[C@H]1[C@H](O)CC(=O)[C@@H]1CCCCCCC(=O)O [Alprostadil],102%,2.36%
CC[C@H]1OC(=O)[C@H](C)[C@@H](O[C@H]2C[C@@](C)(OC)[C@@H](O)[C@H](C)O2)[C@H](C)[C@@H](O[C@@H]2O[C@H](C)C[C@H](N(C)C)[C@H]2O)[C@](C)(O)C[C@@H](C)/C(=N\OCOCCOC)[C@H](C)[C@@H](O)[C@]1(C)O [Roxithromycin],111%,3.88%

# Nothing new here: an excerpt of the list.
Compound,mCherry [1],percent effect [2]
Cc1scc2c1N(C(=O)CN1CCN(C)CC1)c1ccccc1NC2=O,119%,4.14%
CC(=O)Nc1cccc(O)c1 [metacetamol],70.4%,-3.7%
CN1CCC[C@@H]1Cc1c[nH]c2ccc(CCS(=O)(=O)c3ccccc3)cc12,87.3%,-5.88%
Cc1cnc(NC(=O)C2=C(O)c3ccccc3S(=O)(=O)N2C)s1 [Meloxicam],104%,-1.88%
O=P(O)(O)C(O)(Cc1cnc2ccccn12)P(=O)(O)O [minodronic acid],98.8%,-2.55%
O=C(C[C@H](CSc1ccccc1)C(=O)O)c1ccc(-c2ccc(Cl)cc2)cc1 [tanomastat],79%,1.66%
COc1cc(C2Oc3cc([C@H]4Oc5cc(O)cc(O)c5C(=O)[C@@H]4O)ccc3OC2CO)ccc1O (stereo partly drawn) [silibinin],102%,-2.45%
CCN[C@@H]1C[C@H](N)[C@@H](O[C@H]2OC(CN)=CC[C@H]2N)[C@H](O)[C@H]1O[C@H]1OC[C@](C)(O)[C@H](NC)[C@H]1O,103%,-0.72%
O=C(O)c1cc(=O)c2c(OCC(O)COc3cccc4oc(C(=O)O)cc(=O)c34)cccc2o1 [Disodium Cromoglycate],98.3%,0.271%
CC(C)(N)C(=O)N[C@@H](Cc1c[nH]cn1)C(=O)N[C@H](Cc1ccc2ccccc2c1)C(=O)N[C@H](Cc1ccccc1)C(=O)N[C@@H](CCCCN)C(N)=O [ipamorelin],93.4%,-11.6%
C[C@H]1COc2c(C3(N)CC3)c(F)cc3c(=O)c(C(=O)O)cn1c23,144%,-1.41%

# Next entries follow:

Compound,mCherry [1],percent effect [2]
CCCCCCCCCCCCOCCCN [laurixamine],89.7%,-0.219%
CN1CCC[C@H]1c1cccnc1 [Nicotine],98.4%,-10.5%
Cn1cnc([N+](=O)[O-])c1Sc1ncnc2[nH]cnc12 [azathioprine],72.1%,-9.82%
S=C1NCCC(COc2ccccc2)O1 (stereo not drawn) [tifemoxone],96.9%,-3.94%
COC(=O)[C@@H](N)CS,112%,-2.77%
CCOC(=O)c1ncn2c1CN(C)C(=O)c1cc(F)ccc1-2 [flumazenil],124% and 107%,0.393% and -2.89%
CC(C)(C)NC(=O)[C@@H]1C[C@@H]2CCCC[C@@H]2CN1C[C@@H](O)[C@H](Cc1ccccc1)NC(=O)[C@H](CC(N)=O)NC(=O)c1ccc2ccccc2n1 [Invirase],111%,-5.18%
C=C1/C(=C\C=C2/CCC[C@]3(C)[C@@H]([C@H](C)OCCC(C)(C)O)CC[C@@H]23)C[C@@H](O)C[C@@H]1O [maxacalcitol],86.5%,0.661%
COc1ccc2c(c1OC)C(=O)O[C@@H]2[C@H]1c2c(cc3c(c2OC)OCO3)CCN1C,117%,-10.7%
C[C@@H](n1cnc2cc(Cl)ccc2c1=O)[C@](O)(Cn1cncn1)c1ccc(F)cc1F [albaconazole],62.9%,1.81%
O=C(O)[C@@H](c1ccc(OCc2ccc3ccccc3n2)cc1)C1CCCC1 [veliflapon],70.6%,-5.12%
C#C[C@]1(O)CC[C@H]2[C@@H]3CCC4=CC(=O)CC[C@@H]4[C@H]3CC[C@@]21CC [levonorgestrel],85.6% and 106%,-1.47% and 3.39%
CC(C)(Oc1ccc(C2CCCc3ccccc32)cc1)C(=O)O (stereo not drawn) [nafenopin],113%,2.68%
O=C(N[C@H](CO)[C@H](O)c1ccc([N+](=O)[O-])cc1)C(Cl)Cl [chloramphenicol],87.6% and 98.1%,1.56% and -6.29%
COc1ccc(/C=N/NC(=O)c2ccncc2)cc1OC [verazide],74.3%,-11.6%
CC(=O)Oc1ccccc1C(=O)O,113%,-9.09%
COc1ccnc(C[S+]([O-])c2nc3cc(OC(F)F)ccc3[nH]2)c1OC (stereo not drawn) [Pantoprazole],96.9% and 102%,3.07% and 4.48%
CC(=O)N(CC(O)CN(C(C)=O)c1c(I)c(C(=O)NCC(O)CO)c(I)c(C(=O)NCC(O)CO)c1I)c1c(I)c(C(=O)NCC(O)CO)c(I)c(C(=O)NCC(O)CO)c1I (stereo not drawn) [iodixanol],109%,1.02%
CO/N=C(\C(=O)N[C@@H]1C(=O)N2C(C(=O)O)=C(C)CS[C@H]12)c1csc(N)n1 [cefetamet],107%,-1.69%
